From patent US12728119B2, “Pharmaceutical composition for preventing or treating cancer comprising 3-ketoacyl CoA thiolase inhibitor and carnitine acylcarnitine carrier inhibitor” (NATIONAL CANCER CENTER, priority 2020, dated 2026)
For at least one compound, name, drawing or mass did not settle the structure.

System: cancer cells
Experiment: SRB analysis 3, triple combination, summary over cancer panels
Format: cell-based
Conditions: melanoma; UACC62, A375
Description: Through SRB analysis (n=3), the effect of triple combination treatment of a CAC inhibitor (KN510: omeprazole), ACAA inhibitor (KN713: trimetazidine) and other anticancer drug on cell growth in the cancer cells was analyzed. (see Table 11).
The SRB assay was performed as follows: each cell line (100 μl) was seeded into 96-well microtiter plates at densities ranging from 5,000 to 40,000 cells/well depending on the doubling time of each cell line. After 24 hours, drug (100 μl per well) was added to each well and the culture was incubated at 37° C. for 48 hours. Cells were then fixed in 50% TCA (50 μl per well) and plates were incubated at 4° C. for a minimum of 1 hour or a maximum of 3 hours. After that, the liquid was removed from the plate, then rinsed 5 times with water and dried for approximately 12-24 hours at room temperature (RT). After the fixed cells were stained with 0.4% SRB (100 μl per well) for 10 minutes at room temperature, the plates were washed 3 times with 1% glacial acetic acid and dried at room temperature for about 12-24 hours. SRB staining was dissolved in 10 mM Trizma base and absorbance was read at 515 nm. The effect of the drug was expressed as GI50 (50% growth inhibition), TGI (total growth inhibition) or LC50 (lethal concentration). […]

Which “Positive/Negative (triple combination of KN510, KN713 and the listed anticancer drug)” value does the source give for CCCS(=O)(=O)Nc1ccc(F)c(C(=O)c2c[nH]c3ncc(-c4ccc(Cl)cc4)cc23)c1F [Vermutafenib] here?
Its value is “Positive”.
